Measured data: PubChem BioAssay AID652243 (Drosophila RNAi Screening Center, 2013)

Test: 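Fly regulators of androgen-dependent reporter output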 (primary screen)
System: Drosophila S2R+ cells
Reagents: long dsRNA against Drosophila genes
Timing: 72 h (48 h, then 24 h hormone)
Conditions: synthetic androgen R1881 at 10 nM for 24 h
Detection: 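Per-well raw luminescence of the androgen-driven firefly reporter and of the Renilla control, two replicates each, without normalisation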
Direction: firefly reporter light: higher = more light from androgen-responsive reporter; Renilla control light: higher = more constitutive control signal (cell number, transfection)
Call rule: 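Hit when the log firefly-to-Renilla ratio dropped or increased by a fixed fold versus the mean of GFP or LacZ controls across duplicate plates; lowering cut given as 1.5 and as 3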
Meaning of the calls: active = hit: reporter lowered or raised; inactive = no hit
In all, the deposit lists about 24,000 reagents; below is an unselected part of those with a known target gene and a result. In the full data, 246 (1%) were called active. 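Plates not normalised; calls are printed but the firefly/Renilla ratio behind them is not deposited; fold cut for lowering reported inconsistently.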 Raw values vary from plate to plate and are shown uncorrected. The numbers tell different reagents against one gene apart. A plus sign joins genes that one reagent is predicted to hit. Not given: the amount of reagent.

What did the screen give for Cyp304a1?
firefly reporter light, replicate 1: 44498; firefly reporter light, replicate 2: 51815; Renilla control light, replicate 1: 8.99e5; Renilla control light, replicate 2: 1.11e6; outcome: inactive

How did the screen score Polr3C #1?
firefly reporter light, replicate 1: 94179; firefly reporter light, replicate 2: 91311; Renilla control light, replicate 1: 6.40e5; Renilla control light, replicate 2: 7.28e5; outcome: inactive

What is on record for Polr3C #2?
firefly reporter light, replicate 1: 4.93e5; firefly reporter light, replicate 2: 7.18e5; Renilla control light, replicate 1: 1.60e6; Renilla control light, replicate 2: 1.50e6; outcome: inactive

For CG7011 + Prp31, what does the deposit list?
firefly reporter light, replicate 1: 9.39e5; firefly reporter light, replicate 2: 9.94e5; Renilla control light, replicate 1: 9.71e5; Renilla control light, replicate 2: 1.59e6; outcome: inactive

For CG14421 #1, how do the results read?
firefly reporter light, replicate 1: 2.24e5; firefly reporter light, replicate 2: 2.34e5; Renilla control light, replicate 1: 3.44e6; Renilla control light, replicate 2: 3.27e6; outcome: inactive

What did the screen give for CG14421 #2?
firefly reporter light, replicate 1: 1.29e6; firefly reporter light, replicate 2: 1.31e6; Renilla control light, replicate 1: 9.60e5; Renilla control light, replicate 2: 8.89e5; outcome: inactive

For CG18131, what does the deposit list?
firefly reporter light, replicate 1: 7.81e5; firefly reporter light, replicate 2: 8.48e5; Renilla control light, replicate 1: 1.17e6; Renilla control light, replicate 2: 1.13e6; outcome: inactive

How did the screen score Gmap #1?
firefly reporter light, replicate 1: 54743; firefly reporter light, replicate 2: 1.03e5; Renilla control light, replicate 1: 5.98e5; Renilla control light, replicate 2: 6.98e5; outcome: inactive

What is on record for Gmap #2?
firefly reporter light, replicate 1: 5.81e5; firefly reporter light, replicate 2: 5.09e5; Renilla control light, replicate 1: 2.55e6; Renilla control light, replicate 2: 2.77e6; outcome: inactive

For Gmap #3, how do the results read?
firefly reporter light, replicate 1: 3.37e5; firefly reporter light, replicate 2: 2.55e5; Renilla control light, replicate 1: 8.93e5; Renilla control light, replicate 2: 8.93e5; outcome: inactive

Which result is listed for CG12491 + CG34105 #1?
firefly reporter light, replicate 1: 1.49e5; firefly reporter light, replicate 2: 2.27e5; Renilla control light, replicate 1: 6.69e5; Renilla control light, replicate 2: 7.21e5; outcome: inactive

With CG12491 + CG34105 #2, how do the results read?
firefly reporter light, replicate 1: 4.03e5; firefly reporter light, replicate 2: 4.37e5; Renilla control light, replicate 1: 2.04e6; Renilla control light, replicate 2: 2.57e6; outcome: inactive

With CG12491 + CG34105 #3, what was measured?
firefly reporter light, replicate 1: 2.98e5; firefly reporter light, replicate 2: 2.39e5; Renilla control light, replicate 1: 7.01e5; Renilla control light, replicate 2: 6.28e5; outcome: inactive

What did the screen give for CG9896 #1?
firefly reporter light, replicate 1: 1.88e5; firefly reporter light, replicate 2: 1.76e5; Renilla control light, replicate 1: 2.91e5; Renilla control light, replicate 2: 4.15e5; outcome: inactive

With CG9896 #2, how do the results read?
firefly reporter light, replicate 1: 2.97e5; firefly reporter light, replicate 2: 2.54e5; Renilla control light, replicate 1: 2.24e6; Renilla control light, replicate 2: 2.69e6; outcome: inactive

For CG14826, what does the deposit list?
firefly reporter light, replicate 1: 1.24e5; firefly reporter light, replicate 2: 1.74e5; Renilla control light, replicate 1: 1.46e6; Renilla control light, replicate 2: 1.80e6; outcome: inactive

With CG34235 + CG30058 + CG34312 #1, what was measured?
firefly reporter light, replicate 1: 7.17e5; firefly reporter light, replicate 2: 8.58e5; Renilla control light, replicate 1: 1.65e6; Renilla control light, replicate 2: 1.75e6; outcome: inactive

For CG34235 + CG30058 + CG34312 #2, what does the deposit list?
firefly reporter light, replicate 1: 1.15e6; firefly reporter light, replicate 2: 8.41e5; Renilla control light, replicate 1: 2.20e6; Renilla control light, replicate 2: 1.78e6; outcome: inactive

For Naa15-16 #1, how do the results read?
firefly reporter light, replicate 1: 4.24e5; firefly reporter light, replicate 2: 4.41e5; Renilla control light, replicate 1: 2.39e6; Renilla control light, replicate 2: 3.11e6; outcome: inactive

For Naa15-16 #2, what does the deposit list?
firefly reporter light, replicate 1: 5.24e5; firefly reporter light, replicate 2: 8.56e5; Renilla control light, replicate 1: 3.18e5; Renilla control light, replicate 2: 4.72e5; outcome: inactive

With CG11638 #1, what was measured?
firefly reporter light, replicate 1: 2.85e5; firefly reporter light, replicate 2: 2.93e5; Renilla control light, replicate 1: 5.00e6; Renilla control light, replicate 2: 3.37e6; outcome: inactive

With CG11638 #2, what does the deposit list?
firefly reporter light, replicate 1: 2.54e5; firefly reporter light, replicate 2: 3.49e5; Renilla control light, replicate 1: 2.04e6; Renilla control light, replicate 2: 1.34e6; outcome: inactive
